# Reference: US11026876B2, “Composition for improving skin condition comprising chemokines” (TEGO SCIENCE INC., priority 2016, dated 2021)
# Some of these results come from one statement about several compounds together.
# Tested on: melanin in Neoderm®-ME
# Test: Skin whitening effect: melanin quantification in Neoderm®-ME
# Format: cell-based
# Conditions: 500 ng/ml chemokine, 48 hours, higher than untreated group, FIG. 6
row,Substance,"rate of melanin reduction, difference to the negative control"
1,B lymphocyte chemoattractant [BLC (CXCL13)],≥ 20 percentage points
2,thymus-expressed chemokine [TECK (CCL25)],≥ 20 percentage points
